According to patent US20050148506A1:
No constants are given. Whether binding was seen depends on the method and setting. For some of these results: In cells and extracts the contact can be indirect. Some entries that bind do so weakly or less than the wild type. For some of these results: Where a sequence is shown, tags or fusion partners need not be part of it.

Amino acid sequences for entries named in this document (tags omitted). A change or cut given only in a name is not applied to a line headed by its entry. Residues count along the entry.
UniProt P56703, residues 22-355: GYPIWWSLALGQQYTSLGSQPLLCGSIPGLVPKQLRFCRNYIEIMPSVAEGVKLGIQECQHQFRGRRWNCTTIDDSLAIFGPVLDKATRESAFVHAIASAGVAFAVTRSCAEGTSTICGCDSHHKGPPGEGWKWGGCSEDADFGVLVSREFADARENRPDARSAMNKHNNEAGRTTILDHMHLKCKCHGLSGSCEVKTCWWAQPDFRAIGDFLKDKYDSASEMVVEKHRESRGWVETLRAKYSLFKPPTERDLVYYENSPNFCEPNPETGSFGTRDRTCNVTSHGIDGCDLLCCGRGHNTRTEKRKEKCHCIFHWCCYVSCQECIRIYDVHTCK
UniProt Q01974: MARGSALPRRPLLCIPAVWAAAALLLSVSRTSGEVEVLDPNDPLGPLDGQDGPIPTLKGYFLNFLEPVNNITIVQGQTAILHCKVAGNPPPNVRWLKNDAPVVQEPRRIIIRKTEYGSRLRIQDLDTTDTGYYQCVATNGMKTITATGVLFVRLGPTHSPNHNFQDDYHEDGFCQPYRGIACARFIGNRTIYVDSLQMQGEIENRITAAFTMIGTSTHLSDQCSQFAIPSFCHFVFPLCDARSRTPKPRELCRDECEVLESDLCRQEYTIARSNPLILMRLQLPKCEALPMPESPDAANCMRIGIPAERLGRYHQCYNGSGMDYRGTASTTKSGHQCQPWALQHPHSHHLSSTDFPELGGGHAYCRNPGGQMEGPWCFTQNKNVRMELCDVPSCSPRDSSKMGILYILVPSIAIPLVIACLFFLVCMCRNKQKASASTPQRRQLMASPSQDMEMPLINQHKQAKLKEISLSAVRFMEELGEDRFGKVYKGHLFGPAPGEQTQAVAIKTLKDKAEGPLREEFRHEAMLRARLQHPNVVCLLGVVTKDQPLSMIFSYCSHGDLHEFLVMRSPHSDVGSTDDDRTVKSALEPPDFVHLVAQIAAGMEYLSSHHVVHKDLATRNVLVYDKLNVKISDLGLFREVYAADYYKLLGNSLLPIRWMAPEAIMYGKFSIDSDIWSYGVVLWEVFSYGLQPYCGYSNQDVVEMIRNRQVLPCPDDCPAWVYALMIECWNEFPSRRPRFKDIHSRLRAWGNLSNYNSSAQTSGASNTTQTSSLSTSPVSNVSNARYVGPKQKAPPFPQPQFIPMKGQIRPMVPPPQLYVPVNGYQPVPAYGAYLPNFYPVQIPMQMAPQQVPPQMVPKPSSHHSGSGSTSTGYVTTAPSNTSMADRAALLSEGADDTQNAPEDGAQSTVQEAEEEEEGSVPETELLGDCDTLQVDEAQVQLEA

Assays:
[1] = target: T1, HA epitope-tagged human Wnt-1 (Wnt-1-HA) (human) (UniProt P04628); experiment: co-immunoprecipitation with anti-flag from lysates of co-transfected cells, anti-HA immunoblot
T1 sequence (looked up): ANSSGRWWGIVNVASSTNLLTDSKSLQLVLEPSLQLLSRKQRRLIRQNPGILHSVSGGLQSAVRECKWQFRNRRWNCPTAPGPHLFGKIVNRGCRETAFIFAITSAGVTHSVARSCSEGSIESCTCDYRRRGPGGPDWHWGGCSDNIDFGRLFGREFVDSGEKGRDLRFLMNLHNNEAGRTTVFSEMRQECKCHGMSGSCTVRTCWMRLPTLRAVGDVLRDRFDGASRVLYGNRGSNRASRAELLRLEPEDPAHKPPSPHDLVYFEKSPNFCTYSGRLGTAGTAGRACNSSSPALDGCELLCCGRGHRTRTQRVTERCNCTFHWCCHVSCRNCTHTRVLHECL

[2] = target: HA epitope-tagged human Wnt-3 (Wnt-3-HA) (human) (UniProt P56703); experiment: as above
[3] = target: T1, HA epitope-tagged human Wnt-1 (Wnt-1-HA) (human); experiment: co-immunoprecipitation with anti-flag from COS7 lysates, anti-HA immunoblot (FIG. 10 legend)
[4] = target: HA epitope-tagged human Wnt-3 (Wnt-3-HA) (human) (UniProt P56703); experiment: as above
[5] = target: NOTCH2 protein (UniProt Q04721); experiment: listed as specifically immunoprecipitated by Ror2-flag: anti-flag agarose immunoprecipitation from U2OS extracts, gel slices, MS/MS
[6] = target: T1, HA epitope-tagged human Wnt-1 (Wnt-1-HA) (human); experiment: co-immunoprecipitation with anti-flag from COS7 lysates, anti-HA immunoblot; panel of ten HA-tagged Wnts
[7] = target: HA epitope-tagged human Wnt-3 (Wnt-3-HA) (human) (UniProt P56703); experiment: as above
[8] = target: T1, HA epitope-tagged human Wnt-1 (Wnt-1-HA) (human); experiment: co-immunoprecipitation with anti-flag from lysates of co-transfected COS-7 or U2OS cells, anti-HA immunoblot
[9] = target: HA epitope-tagged human Wnt-3 (Wnt-3-HA) (human) (UniProt P56703); experiment: as above
[10] = target: T2, V5- and his-tagged intracellular domain of human Notch2 (Notch2IC-V5-his) (human) (UniProt Q04721); experiment: co-immunoprecipitation with anti-flag from U2OS lysates, anti-his immunoblot (FIG. 16 legend)
T2 sequence (looked up): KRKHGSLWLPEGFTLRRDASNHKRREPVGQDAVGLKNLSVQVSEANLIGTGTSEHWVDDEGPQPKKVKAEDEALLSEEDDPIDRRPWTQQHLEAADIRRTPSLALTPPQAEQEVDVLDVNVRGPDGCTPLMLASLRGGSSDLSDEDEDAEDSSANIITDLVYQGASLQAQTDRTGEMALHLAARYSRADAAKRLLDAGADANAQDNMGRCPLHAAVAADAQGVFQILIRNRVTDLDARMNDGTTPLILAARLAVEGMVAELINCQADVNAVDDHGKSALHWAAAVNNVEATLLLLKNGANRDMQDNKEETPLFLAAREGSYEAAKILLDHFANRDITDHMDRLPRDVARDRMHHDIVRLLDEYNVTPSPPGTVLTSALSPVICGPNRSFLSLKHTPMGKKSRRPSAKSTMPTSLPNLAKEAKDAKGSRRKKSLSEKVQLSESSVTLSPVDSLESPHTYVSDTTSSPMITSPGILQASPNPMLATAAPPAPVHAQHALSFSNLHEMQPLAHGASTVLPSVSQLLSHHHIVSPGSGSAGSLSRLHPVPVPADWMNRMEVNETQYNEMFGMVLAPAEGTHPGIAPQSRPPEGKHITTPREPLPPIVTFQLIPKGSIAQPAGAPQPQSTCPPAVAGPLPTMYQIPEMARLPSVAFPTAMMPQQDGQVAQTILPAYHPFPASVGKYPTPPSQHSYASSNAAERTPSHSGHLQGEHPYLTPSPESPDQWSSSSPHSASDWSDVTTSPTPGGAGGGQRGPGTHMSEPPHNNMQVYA

[11] = target: T2, V5- and his-tagged intracellular domain of human Notch2 (Notch2IC-V5-his) (human); experiment: co-immunoprecipitation on M2 flag affinity agarose from lysates of co-transfected U2OS cells, immunoblot for the Notch2IC tags

Measured: binding

Flag-tagged Ror2 'kinase-dead' mutant (Ror2KD-flag) (from UniProt Q01974 34-943) (receptor)
binds: [1] | [2] | [3] | [4]

Flag-tagged human Ror2 (Ror2-flag) (from UniProt Q01974 34-943) (receptor)
not listed: [1] | [2]
binds: all other assays above
